The values below come from PMC8816719.

By UniProt entry, the sequences of proteins in these tests, tags left out. Where a name states a change or a piece, a line headed by the entry shows the natural chain unless it says otherwise. Residues count along the entry.
UniProt O95994, residues 21-175: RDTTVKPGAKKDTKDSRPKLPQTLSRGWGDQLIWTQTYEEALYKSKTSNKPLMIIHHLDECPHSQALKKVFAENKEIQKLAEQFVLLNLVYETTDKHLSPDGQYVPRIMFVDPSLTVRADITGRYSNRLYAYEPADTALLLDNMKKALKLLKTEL

No constants are given. Whether binding was seen depends on the method and setting. In cells and extracts the contact can be indirect. Here binding means that the protein was enriched with, or labelled near, the bait; the list need not be complete.

Experiment [1] deals with Anterior gradient 2 (AGR2), stably expressed in H1299-LZ4-AGR2 cells (human) (UniProt O95994). The experiment in a line: affinity purification with mass spectrometry; DSP-crosslinked H1299-AGR2 (heavy R10K8) and H1299 (light R0K0) lysates mixed 200 ug + 200 ug; overnight at 4 °C with biotinylated E7 peptide on streptavidin-agarose to capture AGR2 with its partners (F4 peptide as control); elution with 0.1 M glycine pH 2.5; LC-MS/MS with SILAC quantification.

For experiment [2], the target named is Anterior gradient 2 (AGR2), endogenous (human (endogenous in T47D, A549)) (UniProt O95994). The experiment can be described thus: affinity purification with mass spectrometry; T47D cells crosslinked in vivo with 0.6 mM DSP (control: no DSP); 400 ug lysate incubated overnight at 4 °C with biotinylated E7 peptide on streptavidin-agarose to capture endogenous AGR2 with its partners (F4 peptide as control); elution with 0.1 M glycine pH 2.5; LC-MS/MS with label-free quantification.

B1: arogenate dehydratase 3 (ADT3) (protein, UniProt P12236 1-298)
chain: MTEQAISFAKDFLAGGIAAAISKTAVAPIERVKLLLQVQHASKQIAADKQYKGIVDCIVRIPKEQGVLSFWRGNLANVIRYFPTQALNFAFKDKYKQIFLGGVDKHTQFWRYFAGNLASGGAAGATSLCFVYPLDFARTRLAADVGKSGTEREFRGLGDCLVKITKSDGIRGLYQGFSVSVQGIIIYRAAYFGVYDTAKGMLPDPKNTHIVVSWMIAQTVTAVAGVVSYPFDTVRRRMMMQSGRKGADIMYTGTVDCWRKIFRDEGGKAFFKGAWSNVLRGMGGAFVLVLYDELKKVI
Consider B1, for which the binding entry in experiment [1] and in experiment [2] was “binds” throughout.

B2: MCCB (protein, UniProt Q9HCC0 23-563)
chain: YHGDSVASLGTQPDLGSALYQENYKQMKALVNQLHERVEHIKLGGGEKARALHISRGKLLPRERIDNLIDPGSPFLELSQFAGYQLYDNEEVPGGGIITGIGRVSGVECMIIANDATVKGGAYYPVTVKKQLRAQEIAMQNRLPCIYLVDSGGAYLPRQADVFPDRDHFGRTFYNQAIMSSKNIAQIAVVMGSCTAGGAYVPAMADENIIVRKQGTIFLAGPPLVKAATGEEVSAEDLGGADLHCRKSGVSDHWALDDHHALHLTRKVVRNLNYQKKLDVTIEPSEEPLFPADELYGIVGANLKRSFDVREVIARIVDGSRFTEFKAFYGDTLVTGFARIFGYPVGIVGNNGVLFSESAKKGTHFVQLCCQRNIPLLFLQNITGFMVGREYEAEGIAKDGAKMVAAVACAQVPKITLIIGGSYGAGNYGMCGRAYSPRFLYIWPNARISVMGGEQAANVLATITKDQRAREGKQFSSADEAALKEPIIKKFEEEGNPYYSSARVWDDGIIDPADTRLVLGLSFSAALNAPIEKTDFGIFRM
With B2, the binding entry in experiment [1] and in experiment [2] was “binds” in each case.
